Test results published in PubChem BioAssay AID2685 (National Center for Advancing Translational Sciences (NCATS), 2010).
The list shows a part of the results. Shown are side measurements of this screen, not its main read-out; they come without a call. Compounds called inactive in the main read-out are mostly missing here. Words in brackets tell the shape of the fitted curve; partial curves, single points and poor fits give uncertain potencies.

Test: qHTS Assay for Lipid Storage Modulators in Drosophila S3 Cells;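 for cell number change: cells counted by Cell Tracker Red CMTPX staining in the red channel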
Conditions: BODIPY lipid droplet fluorescence, 18-24 h; for cell number change: measured here: cell count max response, cells fed with added oleic acid
Outline: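 Drosophila S3 cells loaded with oleic acid (400 uM, as added) and compounds at several concentrations; lipid droplets imaged by 488-nm laser-scanning cytometry, 500–530 nm intensity and object ratio to cell channel. Percent activity normalized to 20 uM Triacsin C.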

[1] = measured here: cell number channel AC50, cells fed with added oleic acid
[2] = measured here: lipid fluorescence (Fed channel) AC50, cells fed with added oleic acid

Compound | cell number change [%] | AC50 [1] | AC50 [2]
CCc1nc(SCC(=O)N2CCCC2)c2ccccc2n1 | 32.5 | 5.17 µM [rising, partial curve] | –
CCCOc1ccc(N2C(=O)CC(N3CCN(c4ccc([N+](=O)[O-])cc4)CC3)C2=O)cc1 (stereo not given) | – | – | 4.61 µM [falling, partial curve]
COc1ccc2c(c1OC)C(=O)N1N=C(c3ccc(-c4ccccc4)cc3)CC21 (stereo not given) | – | 0.103 µM [rising, full curve, poor fit] | 6.51 µM [rising, partial curve, poor fit]
COc1ccc(CSC(=N)N)cc1[N+](=O)[O-] | -40.9 | 29.1 µM [falling, single point] | 4.61 µM [falling, partial curve]
CC(=O)n1nc(-c2cccnc2)nc1NCc1cccs1 | 137 | 20.6 µM [rising, partial curve] | –
C=CCn1c(C)cc(C(=O)COc2ccc(S(=O)(=O)N3CCCC3)cc2[N+](=O)[O-])c1C | -0.167 | – | 6.51 µM [rising, single point]
COc1ccc(NC(=O)CSc2nnc3ccc(-c4ccncc4)nn23)cc1OC | – | 1.84 µM [falling, partial curve, poor fit] | 6.51 µM [falling, single point]
COCCN(C(=O)CNC(=O)c1ccco1)C(C(=O)NC1CCCC1)c1ccccc1 (stereo not given) | 21.3 | – | 6.51 µM [rising, single point]
NC(=O)c1ccsc1NC(=O)COC(=O)c1c(F)cccc1Cl | -2.8 | – | 1.16 µM [rising, partial curve, poor fit]
Cc1cccc(CSc2nc3[nH]ncc3c(=O)[nH]2)c1 | 31.8 | – | –
CC(C)(C)C(=O)NC1CCN(S(=O)(=O)c2ccccc2F)CC1 | -11.5 | – | 29.1 µM [falling, single point]
CC(C)Oc1ccc(C(=O)OCC(=O)NC2CCCCCC2)cc1 | -9.25 | – | –
Cc1c(C(=O)NC2CC(=O)N(c3ccc4c(c3)OCCO4)C2)cccc1[N+](=O)[O-] (stereo not given) | – | – | 18.4 µM [rising, partial curve]
CN(C)CCCN(C(=O)c1ccco1)c1nc(-c2ccc(Cl)cc2)cs1 | 4.93 | – | 18.4 µM [falling, single point]
Fc1ccc(-c2cnn3c(-c4ccncc4)ccnc23)cc1 | 34.1 | 0.184 µM [rising, full curve, poor fit] | 32.6 µM [rising, single point]
CCC(C(=O)NCCCc1ccccc1)c1ccccc1 (stereo not given) | 1.06 | 0.082 µM [falling, full curve] | 0.164 µM [falling, full curve, poor fit]
O=[N+]([O-])c1ccc(Sc2nnnn2-c2ccccc2)c(Cl)c1 | – | – | 0.326 µM [falling, full curve, poor fit]
O=C(NCC1CCCO1)C(=O)N/N=C/c1cc(Cl)ccc1O (stereo not given) | – | – | 0.13 µM [falling, full curve, poor fit]

Compound | cell number change [%] | AC50 [1] | AC50 [2]
CCOC(=O)C(NCc1ccccc1OC)(NC(=O)c1ccccc1)C(F)(F)F (stereo not given) | -19.4 | – | 0.103 µM [falling, full curve, poor fit]
O=C(Nc1ccc(-n2cnnn2)cc1)C1CCCN1C(=O)NC1CCCCC1 (stereo not given) | -7.11 | – | –
CC1CCCCN1CCCNC(=O)C1CCN(c2nc3ccccc3o2)CC1 (stereo not given) | -47.8 | 14.6 µM [falling, partial curve, poor fit] | 13 µM [falling, partial curve]
CC(NCCOc1ccccc1F)C(=O)Nc1ccc(S(N)(=O)=O)cc1 (stereo not given) | 27.8 | – | 0.231 µM [falling, full curve, poor fit]
Clc1ccc(-c2[nH]ncc2N=Nc2ccccc2)cc1 | -57.8 | 18.4 µM [falling, single point] | 29.1 µM [falling, single point]
COc1cc(/C=N/Nc2ncc(C(F)(F)F)cc2Cl)cc(OC)c1O | 18 | – | 11.6 µM [rising, partial curve]
CC(=O)N1CCN(c2ccc(NC(=O)c3ccc([N+](=O)[O-])o3)cc2Cl)CC1 | 8.26 | – | 2.91 µM [falling, single point]
COCCn1nnnc1C(c1ccccc1)N1CCN(C(=O)c2ccco2)CC1 (stereo not given) | -28.2 | – | –
Cc1occc1-c1nnc(SCc2cc(=O)n3cc(Br)ccc3n2)n1C | 0.593 | – | 0.259 µM [rising, partial curve, poor fit]
CC[C@@]12C(=O)N(c3cccc(F)c3)C(=O)N1[C@H](c1ccc(Br)cc1)[C@@H]1C(=O)N(C(C)(C)C)C(=O)[C@@H]12 | -9.97 | 1.16 µM [falling, partial curve] | –
CC(C)c1ccc(C2CC(=O)N3CN(C)CSC3=C2C#N)cc1 (stereo not given) | 2.1 | – | 5.17 µM [rising, full curve]
COc1ccc(C(=O)CCC(=O)O)c(C)c1 | -70.6 | 4.11 µM [falling, full curve] | 29.1 µM [falling, single point]
CC(C)(O)CC[C@H](OC(=O)c1ccccc1)[C@](C)(O)[C@H]1CC[C@@]2(O)C3=CC(=O)[C@@H]4C[C@@H](O)[C@H](O)C[C@]4(C)C3CC[C@]12C (stereo not given in full) | -13.9 | – | 29.1 µM [rising, partial curve]
Cc1ccc(NC(=O)CCNS(=O)(=O)c2ccc3c(c2)CCC(=O)N3)c(Br)c1 | 1.73 | – | 29.1 µM [rising, single point]
COc1ccc(C(=O)NCC(=O)N2CCCC(C)C2)cc1OC (stereo not given) | 2.98 | 0.651 µM [falling, single point] | –
CCc1cccc2c(C(=O)COC(=O)/C=C/c3ccc(O)c(OC)c3)c[nH]c12 | -42.2 | 29.1 µM [falling, single point] | 29.1 µM [falling, single point]
O=C1CN(C(=O)CC2c3ccccc3-c3ccccc32)CC(=O)N1 | -29.2 | – | 29.1 µM [falling, single point]
Brc1ccc(Oc2ncc(CN3CCN(c4ccccc4)CC3)s2)cc1 | – | 1.64 µM [rising, partial curve, poor fit] | –

Some of the entries so far, comma-delimited.
Compound,cell number change [%],AC50 [1],AC50 [2]
CC(C)(O)CC[C@H](OC(=O)c1ccccc1)[C@](C)(O)[C@H]1CC[C@@]2(O)C3=CC(=O)[C@@H]4C[C@@H](O)[C@H](O)C[C@]4(C)C3CC[C@]12C (stereo not given in full),-13.9,–,"29.1 µM [rising, partial curve]"
COc1ccc(C(=O)NCC(=O)N2CCCC(C)C2)cc1OC (stereo not given),2.98,"0.651 µM [falling, single point]",–
